These are yes or no findings as the source states them, for the method shown. Some binding calls cover weakened binding; strength is not graded here.

Test [1] addresses cyno CD47-His protein (cynomolgus). The test is described as follows: ELISA (FIG. 3B).
Test [2] has the same target. The test can be described thus: ELISA on cyno CD47-His protein.

B1: B5714 (antibody, V domains shown)
VH: QIQLQQSGPELVKPGASVKISCKASGYTFTDYYINWVKQKPGQGPEWIGWIYPGSANTKYSEKVKGKATLTVDTSSTTAYMQLSSLTSDDTAVYFCTRNDPLITAVVPDYWGQGTTLTVSS
VL: DIVMSQSPSSLAVSVGEKVTMSCRSSQSRLYSSNQKNYLAWYQQKPGQSPKLLIYWASTRESGVPDRFTGSGSGTDFTLTISSVKAEDLAVYYCQQYYNYPPTFGGGTKLEIK
B1: the binding entry in test [1] and in test [2] was “binds” throughout.

The values above are taken from patent US20220127357A1.
